Source: the supplement of paper PMC5407854, “Inhibitor of ppGalNAc-T3-mediated O-glycosylation blocks cancer cell invasiveness and lowers FGF23 levels” (eLife, 2017)
Whole data set: some 1,700 compounds, median “T2 sensor activation Q score (MG/GFP ratio z-score vs DMSO controls)” near 0.3, cut for the highest 2% near 1.9. Some of the results follow.

These molecules were tested on ppGalNAc-T2 sensor (assay: T2 sensor activation Q score (MG/GFP ratio z-score vs DMSO controls) (SD units); higher = more sensor activation (inhibition of ppGalNAc-T2 glycosylation)). Settings: HEK293 sensor cells; 10 µM; 6 h.
Procedure: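 Cells were treated with compound at 10 uM for 6 h, then MG/GFP ratio was read by flow cytometry (10,000 cells per well, duplicate wells). Q = (R - R_neg)/SD_neg relative to DMSO vehicle controls; the signal rises when the glycosyltransferase is inhibited.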

| Compound | T2 sensor activation Q score |
| --- | --- |
| O=[N+]([O-])c1ccc(-c2ncc(-c3ccc(Br)cc3)o2)cc1 | -0.6 |
| CC(C)(C#N)c1cc(Cn2cncn2)cc(C(C)(C)C#N)c1 | -2.05 |
| OCc1ncc(-c2ccccc2)s1 | -0.4 |
| Cc1nc2c(O)cccc2cc1CO | 0.65 |
| O=C(O)CCN1c2ccccc2Sc2ccccc21 | -1.15 |
| CCOC(=O)c1ccc(NC(=O)Oc2cc(C)c(Cl)cc2C(C)C)cc1 | 0.1 |
| O=C1Cc2cccc(=O)c(O)c2C(=O)O1 | 0.1 |
| O=C(Nc1ccc(Nc2ccccc2)cc1)Nc1ccccc1Cl | -1.35 |
| COc1cc(-c2ccc(Nc3ccccc3C(=O)O)c(OC)c2)ccc1Nc1ccccc1C(=O)O | -0.5 |
| CC[C@]1(O)C[C@H]2CN(CCc3c([nH]c4ccccc34)[C@@](C(=O)OC)(c3cc4c(cc3OC)N(C=O)[C@H]3[C@@](O)(C(=O)OC)[C@H](OC(C)=O)[C@]5(CC)C=CCN6CC[C@]43[C@@H]65)C2)C1 | 1.4 |
| COC(=O)c1cc(C)[nH]c2c(C)cc3nc4ccccc4c3c12 | 0.65 |
| CC(=O)OC1C=CCC2C(=O)c3cccc(O)c3C(O)C12 (centres undefined) | 1.2 |
| Oc1ccc(NC(=S)Nc2ccccc2)cc1 | -0.9 |
| CC1(CN2CCCC2)CCC(NC(=O)C(c2ccccc2)c2ccccc2)C(C)(C)O1 (centres undefined) | 0.2 |
| C#CC(C)OCC1CNC(=S)O1 (centres undefined) | -1.4 |
| O=C(Nc1ccc(Nc2ccncc2)cc1)c1ccc(Nc2ccnc3ccc([N+](=O)[O-])cc23)cc1[N+](=O)[O-] | -0.05 |
| Cc1ccc([S+]([O-])c2ccc([N+](=O)[O-])c3nonc23)cc1 (centres undefined) | 1.1 |
| O=C(O)c1cccc2c1C(=O)c1cccc3snc-2c13 | 1.8 |
| S=c1cn[nH]c2ccccc12 | 0.55 |
| CCOC(=O)C(Cc1ccc(O)cc1)Nc1nc2ccccc2o1 (centres undefined) | 1.75 |
| Nc1nc2nn(-c3ccccc3)nc2c(=O)[nH]1 | 0.8 |
| Clc1ccccc1-c1nc2ccccc2[nH]1 | 0.9 |
| CCCCNc1cc(Cl)nc(N)n1 | -0.65 |

Given comma-delimited: part of the list above.
Compound,T2 sensor activation Q score
O=C(O)CCN1c2ccccc2Sc2ccccc21,-1.15
CCOC(=O)c1ccc(NC(=O)Oc2cc(C)c(Cl)cc2C(C)C)cc1,0.1
O=C1Cc2cccc(=O)c(O)c2C(=O)O1,0.1
O=C(Nc1ccc(Nc2ccccc2)cc1)Nc1ccccc1Cl,-1.35
COc1cc(-c2ccc(Nc3ccccc3C(=O)O)c(OC)c2)ccc1Nc1ccccc1C(=O)O,-0.5
CC[C@]1(O)C[C@H]2CN(CCc3c([nH]c4ccccc34)[C@@](C(=O)OC)(c3cc4c(cc3OC)N(C=O)[C@H]3[C@@](O)(C(=O)OC)[C@H](OC(C)=O)[C@]5(CC)C=CCN6CC[C@]43[C@@H]65)C2)C1,1.4

Three structures from above, sorted by number of heavy atoms, rising.

| Compound | T2 sensor activation Q score |
| --- | --- |
| S=c1cn[nH]c2ccccc12 | 0.55 |
| CC1(CN2CCCC2)CCC(NC(=O)C(c2ccccc2)c2ccccc2)C(C)(C)O1 (centres undefined) | 0.2 |
| O=C(Nc1ccc(Nc2ccncc2)cc1)c1ccc(Nc2ccnc3ccc([N+](=O)[O-])cc23)cc1[N+](=O)[O-] | -0.05 |

Next part

| Compound | T2 sensor activation Q score |
| --- | --- |
| COc1cc(N=Nc2cccc(S(N)(=O)=O)c2)c2ccccc2c1N | -2.9 |
| CC(OC(=O)Nc1cccc(Cl)c1)C(=O)O (centres undefined) | 1.1 |
| CC(=O)Nc1ccc(Cc2nc3c([nH]2)c(=O)n(C)c(=O)n3C)cc1 | 0.6 |
| CN(C)CCC1c2ccc(Cl)cc2CCc2cccnc21 (centres undefined) | -0.05 |
| O=C(Nc1ccc(Cl)c(Cl)c1)c1ccc(Cl)c(Cl)c1 | -1.6 |
| COc1cc2c(cc1OC)C(/C=C/c1ccco1)=NCC2 | 1.1 |
| CC1(C)O[C@H]2CC(=O)OC[C@]23[C@H]2CC[C@@]4(C)[C@H](c5ccoc5)OC(=O)[C@H]5O[C@]54[C@]2(C)C(=O)C[C@@H]13 | -0.4 |
| Cc1[nH]c(N=Nc2ccccc2)nc1N=Nc1ccccc1 | -0.25 |
| O=C(Nc1ccc(NC(=O)c2ccncc2)cc1)c1ccncc1 | -0.5 |
| CCOc1ccc(NC(=S)NC(=O)c2ccco2)cc1 | 0.15 |
| CN(N=O)C(=O)N[C@@H]1[C@@H](O)[C@H](O)[C@@H](CO)O[C@@H]1O | -0.2 |
| CC1CC=C(O)C12OCC(C)(C)CO2 (centres undefined) | -2.3 |
| COC(=O)C1=C(C(=O)OC)[C@@H]2CCC[C@H]1[C@H]1[C@@H]2N=NN1c1ccccc1 | -1.4 |
| COCC(O)Cn1ccnc1[N+](=O)[O-] (centres undefined) | 0.55 |
| C#Cc1cccc(Nc2ncnc3cc(OCCOC)c(OCCOC)cc23)c1 | 0.75 |
| O=C1OCC/C1=C\c1ccc2c(c1)OCO2 | 0.9 |
| O=C(/C=C/c1cccnc1)c1ccccc1O | 1.75 |
| CC1(C)CCCC2(C)C(OCCO)=CC(=O)C=C12 (centres undefined) | -0.45 |
| COc1ccccc1N1C(=O)CC(Sc2ccccc2N)C1=O (centres undefined) | 0.2 |
| CO[C@H](C(=O)[C@@H](O)[C@@H](C)O)[C@@H]1Cc2cc3cc(O[C@H]4C[C@@H](O[C@H]5C[C@@H](O)[C@H](O)[C@@H](C)O5)[C@H](O)[C@@H](C)O4)c(C)c(O)c3c(O)c2C(=O)[C@H]1O[C@H]1C[C@@H](O[C@H]2C[C@@H](O[C@H]3C[C@](C)(O)[C@H](O)[C@@H](C)O3)[C@@H](O)[C@@H](C)O2)[C@H](O)[C@@H](C)O1 | -0.7 |
| NC(=O)c1nc2c([nH]c1=O)CCCC2 | -0.85 |
| CC(=O)/C=C(\C)Nc1ccccc1O | 0.55 |
| O=C(O)/C=C\c1cc2c(cc1[N+](=O)[O-])OCO2 | 0.4 |

| Compound | T2 sensor activation Q score |
| --- | --- |
| O=C1NCN(CCO)CN1 | 1.55 |
| Cc1csc(NC(=O)c2ccc(C(=O)Nc3nc(C)cs3)cc2)n1 | 0.5 |
| O=C(c1ccccc1)C1N=NCC1c1ccc(Cl)cc1 (centres undefined) | 0.05 |
| CC(=O)OCCn1c([N+](=O)[O-])cnc1/C=[N+](\[O-])C1CCCCC1 | -0.9 |
| O=C(O)CCC1(c2ccccc2)NC(=O)NC1=O (centres undefined) | 0.95 |
| CC1(C)CC(=O)C(CC(=O)c2ccccc2)=C(NN=C(N)N)C1 | -0.15 |
| CN1N=C(N)c2cn([C@@H]3O[C@H](COP(=O)(O)O)[C@@H](O)[C@H]3O)c3ncnc1c23 | 1.15 |
| Cn1ncc2c(Nc3cccc(Cl)c3)nc(Nc3cccc(Cl)c3)nc21 | 0.9 |
| CC1=C2C3OC(=O)C(C)C3CCC2(C)C=C(Cl)C1=O (centres undefined) | 0.95 |
| O=C(NN1CCCCC1)NN1CCCCC1 | 1.5 |
| Cc1cc(C)c2c(SC(C)C)nc(N)nc2n1 | -0.45 |
| Cc1c(C(C)(C(=O)O)c2c(C)n(C)c3ccccc23)c2ccccc2n1C | 0.65 |
| O=C(O)/C=C/C(=O)Nc1cccc2cccnc12 | 0.3 |
| NNC(=O)c1nnsc1-c1csnn1 | 0.7 |
| OCc1nnn(-c2ccccc2)c1CO | 0.8 |
| Cc1ccc2c(c1)C(=C(C#N)C#N)CCN2 | 1.45 |
| Clc1ncnc2[nH]ccc12 | -1.5 |
| CCCN(CCC)c1ccc(/C=C/c2ccc3cc(OCC)ccc3n2)cc1 | -0.05 |
| CN1C(=C=Cc2cc(I)c(O)c(I)c2)C(C)(C)c2ccccc21 | 3.65 |
| O=C(CSc1nc2ccc([N+](=O)[O-])cc2s1)c1ccc2ccccc2c1 | 0.95 |
| CC(=O)NC1(C(=O)O)CCCC1 | -0.95 |
| Nc1nc2ccc([N+](=O)[O-])cc2[nH]1 | 1.15 |
| Nc1ccc(C(=O)Oc2ccc([N+](=O)[O-])cc2)cc1 | 1.55 |

| Compound | T2 sensor activation Q score |
| --- | --- |
| C/C(=C\c1csc(C)n1)[C@@H]1C[C@@H]2O[C@]2(C)CCC[C@H](C)[C@H](O)[C@@H](C)C(=O)C(C)(C)[C@@H](O)CC(=O)N1 | -0.5 |
| c1cncc(-c2nc3ccccc3s2)c1 | 0.7 |
| N#Cc1ccc(NC2c3ccccc3CC2O)cc1 (centres undefined) | -0.4 |
| O=c1[nH]c(SCc2ccccc2[N+](=O)[O-])nc2nc[nH]c12 | 1.15 |
| Cc1ccc(/C=C2\CCOC2=O)cc1 | 0.65 |
| Nc1nc(=S)ss1 | 1.35 |
| ClC(Cl)(Cl)C1=NCc2nnn(Cc3ccccc3)c2N1 | 1.2 |
| CCOC(=O)c1[nH]c(C(=O)O)c(OC(=O)CC)c1C | 1.3 |
| Cc1ccc(NC(=O)c2ccc(CN3CCN(C)CC3)cc2)cc1Nc1nccc(-c2cccnc2)n1 | -0.45 |
| COc1cc2c(Nc3ccc(Br)cc3F)ncnc2cc1OCC1CCN(C)CC1 | -1.7 |
| COc1ccccc1NC(=O)c1cc2ccccc2cc1O | 0.8 |
| Nc1n[nH]c(=S)n1-c1ccc(Cl)cc1 | 0.8 |
| CCCCCc1cccnc1 | 1.75 |
| O=Cc1c[nH]c2ncccc12 | 1.2 |
| C#CCSc1n[nH]c(-c2ccco2)n1 | 1.7 |
| c1ccc(CSc2nc3ncncc3[nH]2)cc1 | 1.1 |
| Cc1cc2cc3c(=O)[nH]c(=O)cc-3n(CC(O)C(O)C(O)CO)c2cc1C (centres undefined) | 0.65 |
| FC(F)(F)c1cccc(OCC2CNC(=S)O2)c1 (centres undefined) | 0.65 |
| C1C2CC3C1C3/C2=N\N=C1/C2CC3C(C2)C13 | 0.3 |
| O=C(O)CCC(=O)OCCN(Cc1ccc(Oc2ccc([N+](=O)[O-])cc2)cc1)C(=O)C(Cl)Cl | 0.3 |
| N#Cc1[nH]nc2nc[nH]c(=O)c12 | -2.4 |
| c1ccc2c(c1)Oc1cccc3cccc-2c13 | 1.3 |
| CN(CC(=O)O)Cc1oc(CO)cc(=O)c1O | -0.15 |

| Compound | T2 sensor activation Q score |
| --- | --- |
| Cc1cc(-c2ccc(N3C(=O)CC4(CCCC4)C3=O)c(C)c2)ccc1N1C(=O)CC2(CCCC2)C1=O | 0.55 |
| CCCCn1ccnc1C | 1.65 |
| O=[N+]([O-])c1cccnc1Oc1cccnc1 | -0.5 |
| CCOc1ccc(Nc2c3ccccc3nc3ccccc23)cc1 | -2.1 |
| CC1=C(/C=C/C(C)=C/C=C/C(C)=C/C(=O)O)C(C)(C)CCC1 | -0.45 |
| COc1ccc(/C(C#N)=C/c2ccccn2)cc1 | -0.3 |
| Cc1cc2nc(CS)[nH]c2cc1C | 0.1 |
| c1ccc(Sc2ncccn2)nc1 | 1.25 |
| COc1ccc(C2C3=C(COC3=O)Oc3cc4c(cc32)OCO4)cc1OC (centres undefined) | 1.15 |
| CCCCN1C(=O)CC2CCOC21C (centres undefined) | -0.45 |
| Nc1ccc(S(=O)(=O)NCC2CCCCO2)cc1 (centres undefined) | 0 |
| Cc1ccc(Nc2c(O)nc[nH]c2=O)cc1C | -0.15 |
| COc1ccc2c(c1)c1ccc3c(c1n2C)C(=O)C=CC3=O | -0.6 |
| CCOC(=O)Nc1ccc(C(=O)/C=C/c2ccccc2)cc1 | 0.6 |
| O=C(CCl)NC1(C(=O)O)CCCC1 | -0.45 |
| C#Cc1cccc(NC(=O)c2ccc(Cl)cc2Cl)c1 | 0.95 |
| O=C(C(=O)c1cccnc1)c1cccnc1 | 1.55 |
| O=[N+]([O-])c1cc(-c2cccnc2)n[nH]1 | -0.35 |
| Nc1ccn([C@@H]2O[C@H](CO)[C@@H](O)C2(F)F)c(=O)n1 | -0.85 |
| CO[C@H]1C[C@@H]2CC[C@@H](C)[C@@](O)(O2)C(=O)C(=O)N2CCCC[C@H]2C(=O)O[C@H]([C@H](C)C[C@@H]2CC[C@@H](OCCO)[C@H](OC)C2)CC(=O)[C@H](C)/C=C(\C)[C@@H](O)[C@@H](OC)C(=O)[C@H](C)C[C@H](C)/C=C/C=C/C=C/1C | -2.8 |
| N#CCCCCN1CCCC1 | -0.65 |
| CC(=O)O[C@@]12CO[C@@H]1C[C@H](O)[C@@]1(C)C(=O)[C@H](O)C3=C(C)[C@@H](OC(=O)[C@H](O)[C@@H](NC(=O)OC(C)(C)C)c4ccccc4)C[C@@](O)([C@@H](OC(=O)c4ccccc4)[C@H]21)C3(C)C | -0.4 |
